Test results reported in article PMC8316575.
Results are given in words; binding and its absence hold for the method and conditions named. Binding seen in cells or lysates may run through a third protein. Some entries that bind do so weakly or less than the wild type.

Amino acid sequences for entries named in this document (tags omitted).
UniProt P47196: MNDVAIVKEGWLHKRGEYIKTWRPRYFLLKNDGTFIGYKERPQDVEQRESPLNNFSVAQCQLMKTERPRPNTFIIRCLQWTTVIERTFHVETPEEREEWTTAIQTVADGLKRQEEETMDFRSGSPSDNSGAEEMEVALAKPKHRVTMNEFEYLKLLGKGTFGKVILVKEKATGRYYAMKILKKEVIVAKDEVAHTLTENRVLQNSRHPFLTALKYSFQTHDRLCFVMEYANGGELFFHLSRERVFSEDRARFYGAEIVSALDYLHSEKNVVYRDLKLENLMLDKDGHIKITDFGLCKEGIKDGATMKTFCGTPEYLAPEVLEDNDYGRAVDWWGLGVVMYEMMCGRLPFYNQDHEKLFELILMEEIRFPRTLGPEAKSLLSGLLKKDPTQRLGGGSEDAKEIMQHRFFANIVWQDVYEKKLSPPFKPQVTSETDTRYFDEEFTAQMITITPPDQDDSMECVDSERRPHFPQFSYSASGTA

Target: T1, Bad (rat (endogenous in kidney cortex)) (UniProt O35147)
T1 sequence: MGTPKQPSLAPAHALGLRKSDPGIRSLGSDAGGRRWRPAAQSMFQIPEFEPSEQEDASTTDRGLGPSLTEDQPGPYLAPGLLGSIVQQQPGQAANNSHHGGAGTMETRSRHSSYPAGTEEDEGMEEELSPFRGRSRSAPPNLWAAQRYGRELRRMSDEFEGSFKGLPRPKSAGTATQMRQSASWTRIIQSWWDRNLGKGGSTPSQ
Experiment: co-IP; anti-Bad 11E3 antibody (or normal rabbit IgG) on Dynabeads, incubated with rat kidney cortex lysate (RIPA, 0.8 mg protein) overnight at 4 °C; blot for Akt1; cortex slices pre-treated with 10 or 30 mM glucose for 1 h, with or without ouabain

In the case of “Akt1 (from UniProt P47196 1-480) (enzyme)”, the binding is reported as “binds”.
